The results in this text go back to PubChem BioAssay AID1508600 (Functional Genomics Laboratory (NCATS/FGL), 2020).

Hit rate of the full screen: of about 53,000 sequences, about 3,700 (7%) were called active.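 The calls were made as follows: active = gene knockdowns whose robust z-score for IL-1 alpha signal is at least 2 or at most -2, so actives lie on both sides; inactive = the rest.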 Some of the results follow.

A short description of the assay: Components of the Cytosolic LPS Sensing Pathway: Gene Identification via Genome-wide siRNA Screen.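 Also: robust z of the log signal after scaling to non-targeting control siRNA wells of the plate.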 The following applies: RAW264.7 macrophages, IL-1a HTRF, actives lie on both sides, screened at 100 nM (by protocol), cells primed 5 h with Pam3CSK4 first. In short, it runs like this:
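Read-out: IL-1a HTRF on supernatant, divided by plate negative-control median ×100, log-transformed and converted to robust z-score. Cells were RAW264.7 given 100 nM siRNA, Pam3CSK4-primed 5 hours, then LipidA-transfected 24 hour.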
As for GCUGAAUACAACGUGAGAUTT against Tdh, the z-score was active: -4.05.
Then GGGUUGUUGAGACUUCCACTT against Hmbs, with active: 2.79; and CCUACCUUCAUUCGCUUCGTT against Cpz, with active: 2.61; and GGGAACCCAUUUUAGAAUUTT against Repin1, with inactive: 0.729.
Next, CGAUGAAGCCAAUCACUUATT against Cct5: inactive: -1.46; CCAGUACGAACUCUUCCGUTT against Zmynd8: inactive: 0.105.
Regarding GGCCUUACCAAAUGGAAGUTT against Ifih1, the z-score is active: 2.89.
As for GGUUCUUCUGGCUAGGCACTT against Sgk1, the z-score is inactive: -0.134.
For UUGUGAGUGCAUGUGAAAUTT against Epn1, the z-score is inactive: -1.35.
Then GGUGAUCAAACUGAUGGACTT against Gramd4, with inactive: 1.83; and GGCUUCUCUGCUCUAGGCUTT against Psenen, with inactive: -0.91; and GGCGGAAAAGUGUGCAAUATT against Cd244a, with inactive: 0.0851.
On to UAGCAGUCUACAGGAAUGGTT against Olfr1411, for which the z-score is inactive: -0.138.
In the case of CCCUCUUUAAACAGAUUGGTT against Fmo4, the z-score is inactive: 0.0175.
GGAGACAACCCAGAUGAACTT against Cfap126: the z-score is inactive: 1.09.
On to GGAUAACUCACAAGAGUCUTT against Zdhhc16, for which the z-score is inactive: -0.296.
Next, GCCCACUAGUCAAAAGCUUTT against Kera: inactive: -1.39; GGGUUCGUUUCACAGAUCCTT against Chrd: inactive: 0.126; CGUGGCUAAACAAAGAGCUTT against Sass6: inactive: -0.841.
Consider GGCAAUUUAUAAUGUCUCUTT against Heph, for which the z-score was inactive: -0.143.
Turning to GGAGGCUGAGUAGGUAUGATT against Olfr137, the z-score was inactive: -0.635.
GGACAGUGACUACAAUCCATT against Zfp335: the z-score was inactive: -0.53.
Consider GCCAAUGGUGUUAACAGCATT against Slc24a4, for which the z-score was inactive: -1.94.
Consider GGUUGUGUGCAGGAAUGGGTT against Nxn, for which the z-score is inactive: -0.221.
As for GGCCUUCAUCUUCAAGUACTT against Ackr3, the z-score is inactive: 1.57.
As for GGAAGAAGCUCUAUGCUGATT against Fbxo9, the z-score is inactive: -0.589.
As to CCUAUCCUAGCACACCAGATT against Fosl1, the z-score was inactive: -0.258.
Next, GGGUAGGGCAGUCUACUUATT against F2r: inactive: -0.407; CGAGCAAUGGCAGAUGAGCTT against Mydgf: inactive: -0.188; GCGACAAUAUGAGUCACCUTT against Fsd1: active: -2.07.
As for GAAAAGAGGACAGCUUGACTT against Serf1, the z-score is inactive: 0.525.
For GCCCAGUCAAGACUAUUCGTT against Csnk2b, the z-score is inactive: 1.58.
Next, GCAAAUACGAAAAUGAGUGTT against Bfsp1: inactive: -0.121.
For GGGAAGUUUCAGGAAGAAGTT against Pbx4, the z-score is inactive: -0.0399.
CCAAUAAAAAAUGUCUGCATT against Tent5b: the z-score was inactive: -1.16.
Regarding GGGAGAAGAUGUCCAUCAATT against Spata19, the z-score was inactive: 1.72.
For GUGGUCUUUAUCGGCAUGATT against Slc35c1, the z-score was inactive: 0.287.
Then CGUGAAGAUUGACGUGUUUTT against Pcyox1, with inactive: 1.06; and GCUUGGAUUGAGCUUUACATT against Pid1, with active: 3.53; and GCGUGGUGUUGACUAUGAGTT against Retsat, with inactive: -0.348.
As for GGUGUAGAAAUAAAGUGAGTT against Mbl2, the z-score is inactive: -0.615.
Turning to GGAUUCUCAUGAUUGUAAATT against Tasor2, the z-score is inactive: -0.438.
Turning to GCACUACAGACACUUUUAGTT against Gm5533, the z-score was active: -2.12.
For the sequence GGGAUGCCAUCGUGUUUCUTT against Ccl17, the z-score is inactive: -0.345.
As for GGCUUUUUGGCUCAAAAAUTT against Spg21, the z-score is inactive: -0.903.
Consider GCUCAUGUUGCAUGUUAAGTT against Idh3g, for which the z-score is inactive: -0.0467.
As to GGGACCACAAAUUUGAAAATT against Tmprss11e, the z-score is inactive: 0.656.
On to GCAGAUCCGGUAUUUACAUTT against Ngrn, for which the z-score was inactive: -0.814.
Next, GCUACUAAAUUCUGUUUUGTT against Nol4l: inactive: 0.325; CCAUCUCAAACACCAAUCGTT against Timd4: inactive: -1.42; CCCAGGUAGUAUACAAGGUTT against Pcdh1: active: 2.42.
Consider GGAAAGUGGUUUUGUCCACTT against Ing5, for which the z-score was inactive: 0.361.
With GCAAAGAGGCCUAAUUGAATT against B2m, the z-score was inactive: 1.16.
Then CCACAGGGAUAGAUACUCCTT against Olfr566, with inactive: -0.339.
Next, “CCUCUCUUUAACAGGUCACTT against 1700034H15Rik”: inactive: 1.35.
As for “CGAGUAUCCCGUCAAGUUGTT against 6820408C15Rik”, the z-score was inactive: -0.699.
Next, GGAAAGCCACUGUGUAAAATT against Armc9: inactive: 0.594.
As to GCACAGGUUCAAGUGGAACTT against Prnd, the z-score was inactive: -1.41.
Then GGUACUGAGCUUGAUUGUATT against Mfsd7a, with inactive: 1.26; and GCCAUGAGGAGAUUCAAGGTT against Klra5, with inactive: 0.749.
For GGAACAAAGACGUAAAAAATT against Olfr1101, the z-score was inactive: -0.825.
Next, GGCGAUGUGACCAUUACAATT against Cct4: inactive: -1.5.
Take CCGGAGUGACCAUAUUCGUTT against Fgr: the z-score was inactive: -0.446.
Then GCAUCUAUAAUUCUAUACCTT against BC023105, with inactive: 0.39; and GGUAUUUAAGUGAUACAUCTT against Ddost, with inactive: -0.321; and GGUUACAAUCCAUGAGAAATT against Anapc1, with inactive: -0.059.
Consider CCAAAUCUGUUGAUGAUUCTT against Setmar, for which the z-score is inactive: -0.184.
Next, CGGGAUAGUAACUUCUUAATT against Mettl21a: inactive: 0.801.
